{"source": "PubChem BioAssay AID1053144", "about": "(Broad Institute, 2014)", "note": "About 160 (4.7%) of roughly 3,400 compounds were called active. Listed are the inconclusive results; actives and inactives stand elsewhere.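 Rule for the calls: active = fitted curve reaches 30% activation at a concentration no higher than the top valid tested dose, luminescence rising; inconclusive = no clear call, values can overlap the other calls; inactive = signal moving opposite to the expected increase, plus the rest.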"}
{"experiment": "TCF/LEF reporter activation in neural progenitors – cell-based, iPS-derived NPC, luciferase, Wnt3a, cherry-pick, dose response (AID 1053144);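 note: Wnt3a stimulus is conditioned medium from Wnt3a-transfected mouse L cells at 5% in well; 0% = neutral control wells and 100% = CHIR-99021 positive control wells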", "settings": "Wnt3a EC25, 24 h; at 26 µM (top of the series)"}
{"smiles": "COc1cc(/C=N/Nc2nc3ccccc3s2)ccc1O", "activation": "inconclusive: 25.7%"}
